This assay deals with GLP-1R-Rluc8 (human) (UniProt P43220). Nature of the assay: FRET or BRET.

Protein sequences, listed by entry. Tags and fused reporters are not part of them. Residues count along the entry.
UniProt P43220, residues 24-463: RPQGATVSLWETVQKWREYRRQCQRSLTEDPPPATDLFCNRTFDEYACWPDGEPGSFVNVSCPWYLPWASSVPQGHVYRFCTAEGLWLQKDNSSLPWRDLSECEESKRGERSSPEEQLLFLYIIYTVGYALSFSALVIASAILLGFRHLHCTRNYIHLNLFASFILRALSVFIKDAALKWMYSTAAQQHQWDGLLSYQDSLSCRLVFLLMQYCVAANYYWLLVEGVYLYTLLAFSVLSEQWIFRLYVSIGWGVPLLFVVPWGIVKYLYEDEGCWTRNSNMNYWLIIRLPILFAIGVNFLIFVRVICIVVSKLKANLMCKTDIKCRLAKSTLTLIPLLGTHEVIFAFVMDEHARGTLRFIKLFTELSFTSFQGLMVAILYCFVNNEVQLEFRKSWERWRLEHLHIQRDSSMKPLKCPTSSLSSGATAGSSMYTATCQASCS
UniProt P29066: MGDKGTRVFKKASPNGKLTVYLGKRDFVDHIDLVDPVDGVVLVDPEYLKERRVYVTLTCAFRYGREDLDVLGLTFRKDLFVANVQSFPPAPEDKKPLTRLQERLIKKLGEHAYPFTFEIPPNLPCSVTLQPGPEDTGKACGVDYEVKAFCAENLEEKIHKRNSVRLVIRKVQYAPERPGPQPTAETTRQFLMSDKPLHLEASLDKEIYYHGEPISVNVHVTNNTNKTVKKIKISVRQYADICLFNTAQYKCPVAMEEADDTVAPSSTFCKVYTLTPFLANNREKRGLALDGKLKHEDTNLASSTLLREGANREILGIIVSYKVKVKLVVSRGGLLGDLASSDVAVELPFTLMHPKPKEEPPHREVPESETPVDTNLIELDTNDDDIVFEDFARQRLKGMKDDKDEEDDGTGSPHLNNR

Results are given in words; binding and its absence hold for the method and conditions named. In cells and extracts the contact can be indirect. Some results given as binding are weak or reduced against the parent protein; the word gives no strength.

Consider “rat β-arrestin1-Venus (from UniProt P29066 1-418)”, for which the binding result is “binds”.

The record behind these values is doi:10.1101/2020.08.16.252585.
